Test results published in the supplement of paper PMC12595434, “Development of retinoid nuclear receptor pathway antagonists through targeting aldehyde dehydrogenase 1A3” (iScience, 2025).
The other results are listed elsewhere or left out. Single values of this set are uncertain.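 Tm was set to 64 °C where no melting was found, and many curves are irregular.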

The chains behind the UniProt entries cited, without tags or fusion partners. Where a name states a change or a piece, a line headed by the entry shows the natural chain unless it says otherwise.
UniProt Q8TCD5: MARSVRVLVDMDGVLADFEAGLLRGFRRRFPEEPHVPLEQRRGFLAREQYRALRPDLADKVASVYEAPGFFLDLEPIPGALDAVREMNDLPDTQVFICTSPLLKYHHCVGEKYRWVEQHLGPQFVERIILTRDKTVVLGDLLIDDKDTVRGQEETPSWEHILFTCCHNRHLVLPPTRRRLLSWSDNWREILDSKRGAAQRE
UniProt Q8NEL9: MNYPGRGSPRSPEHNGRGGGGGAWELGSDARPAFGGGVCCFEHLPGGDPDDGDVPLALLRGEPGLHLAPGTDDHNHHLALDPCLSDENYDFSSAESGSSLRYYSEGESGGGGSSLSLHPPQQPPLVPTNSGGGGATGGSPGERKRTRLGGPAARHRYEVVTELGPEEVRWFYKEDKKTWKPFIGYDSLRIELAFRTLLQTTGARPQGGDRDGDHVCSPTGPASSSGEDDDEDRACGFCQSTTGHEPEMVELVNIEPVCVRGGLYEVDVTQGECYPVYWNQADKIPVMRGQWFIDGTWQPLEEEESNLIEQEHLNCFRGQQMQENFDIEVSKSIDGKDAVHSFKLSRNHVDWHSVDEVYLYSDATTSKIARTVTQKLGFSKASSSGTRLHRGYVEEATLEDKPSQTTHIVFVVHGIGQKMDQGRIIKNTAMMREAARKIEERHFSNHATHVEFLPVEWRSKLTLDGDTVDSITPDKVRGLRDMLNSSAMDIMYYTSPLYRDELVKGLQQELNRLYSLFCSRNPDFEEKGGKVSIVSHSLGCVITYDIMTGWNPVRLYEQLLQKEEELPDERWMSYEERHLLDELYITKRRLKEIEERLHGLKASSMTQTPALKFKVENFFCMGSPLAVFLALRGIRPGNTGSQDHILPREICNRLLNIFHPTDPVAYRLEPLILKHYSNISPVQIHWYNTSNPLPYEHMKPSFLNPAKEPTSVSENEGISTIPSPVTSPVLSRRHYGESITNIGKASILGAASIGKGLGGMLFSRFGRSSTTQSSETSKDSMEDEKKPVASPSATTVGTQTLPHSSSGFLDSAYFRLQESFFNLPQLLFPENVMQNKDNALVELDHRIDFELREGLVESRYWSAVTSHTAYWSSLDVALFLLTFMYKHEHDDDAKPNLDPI
UniProt Q8NI22: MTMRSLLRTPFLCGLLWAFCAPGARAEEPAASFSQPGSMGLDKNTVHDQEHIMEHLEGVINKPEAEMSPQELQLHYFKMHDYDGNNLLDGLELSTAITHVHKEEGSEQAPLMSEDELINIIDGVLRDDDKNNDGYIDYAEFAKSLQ
UniProt Q8TE77: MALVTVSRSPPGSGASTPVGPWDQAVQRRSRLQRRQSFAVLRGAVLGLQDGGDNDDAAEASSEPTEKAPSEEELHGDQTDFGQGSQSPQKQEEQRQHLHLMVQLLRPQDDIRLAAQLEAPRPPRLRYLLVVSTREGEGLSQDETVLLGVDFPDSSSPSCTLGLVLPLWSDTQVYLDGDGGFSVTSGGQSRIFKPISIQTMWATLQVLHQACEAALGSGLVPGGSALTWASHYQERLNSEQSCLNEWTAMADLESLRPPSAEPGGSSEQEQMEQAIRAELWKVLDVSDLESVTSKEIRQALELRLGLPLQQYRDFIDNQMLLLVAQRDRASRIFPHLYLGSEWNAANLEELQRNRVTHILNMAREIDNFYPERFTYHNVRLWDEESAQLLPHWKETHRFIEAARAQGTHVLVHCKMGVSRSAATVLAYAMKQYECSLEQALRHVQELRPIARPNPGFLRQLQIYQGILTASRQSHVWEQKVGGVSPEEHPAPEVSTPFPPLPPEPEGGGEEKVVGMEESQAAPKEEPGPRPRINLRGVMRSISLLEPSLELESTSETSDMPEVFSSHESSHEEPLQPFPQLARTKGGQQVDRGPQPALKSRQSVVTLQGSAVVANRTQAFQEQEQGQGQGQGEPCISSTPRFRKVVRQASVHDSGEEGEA
UniProt Q8NDZ4: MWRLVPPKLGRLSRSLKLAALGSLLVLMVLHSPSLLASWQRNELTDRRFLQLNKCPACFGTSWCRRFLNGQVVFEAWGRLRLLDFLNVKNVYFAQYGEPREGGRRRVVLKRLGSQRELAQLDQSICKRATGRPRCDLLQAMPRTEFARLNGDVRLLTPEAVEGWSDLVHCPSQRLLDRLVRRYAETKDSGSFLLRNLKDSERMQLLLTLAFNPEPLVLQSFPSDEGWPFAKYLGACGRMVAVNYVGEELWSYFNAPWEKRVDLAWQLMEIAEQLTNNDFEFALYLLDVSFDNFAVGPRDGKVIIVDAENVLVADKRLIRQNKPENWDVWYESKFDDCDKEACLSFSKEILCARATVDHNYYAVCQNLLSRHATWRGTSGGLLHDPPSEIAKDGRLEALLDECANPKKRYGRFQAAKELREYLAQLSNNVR
UniProt Q8TAF3: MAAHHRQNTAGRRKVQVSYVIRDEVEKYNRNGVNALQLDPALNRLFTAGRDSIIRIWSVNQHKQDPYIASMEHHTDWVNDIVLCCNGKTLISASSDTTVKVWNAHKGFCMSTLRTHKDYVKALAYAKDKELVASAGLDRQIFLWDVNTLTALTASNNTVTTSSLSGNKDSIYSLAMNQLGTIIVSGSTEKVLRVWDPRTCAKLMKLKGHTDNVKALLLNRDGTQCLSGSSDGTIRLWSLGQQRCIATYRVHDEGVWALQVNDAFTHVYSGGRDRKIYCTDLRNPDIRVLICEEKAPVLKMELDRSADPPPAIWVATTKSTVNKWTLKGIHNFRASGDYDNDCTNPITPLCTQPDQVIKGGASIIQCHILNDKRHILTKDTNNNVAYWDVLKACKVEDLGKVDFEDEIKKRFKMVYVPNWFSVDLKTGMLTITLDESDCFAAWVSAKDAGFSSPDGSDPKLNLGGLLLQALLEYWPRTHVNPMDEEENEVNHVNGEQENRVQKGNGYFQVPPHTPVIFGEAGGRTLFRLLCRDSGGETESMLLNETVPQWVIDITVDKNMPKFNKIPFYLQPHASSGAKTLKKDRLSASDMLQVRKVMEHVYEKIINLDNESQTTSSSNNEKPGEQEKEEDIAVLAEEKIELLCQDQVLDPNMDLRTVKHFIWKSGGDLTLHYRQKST
UniProt Q8TBE0: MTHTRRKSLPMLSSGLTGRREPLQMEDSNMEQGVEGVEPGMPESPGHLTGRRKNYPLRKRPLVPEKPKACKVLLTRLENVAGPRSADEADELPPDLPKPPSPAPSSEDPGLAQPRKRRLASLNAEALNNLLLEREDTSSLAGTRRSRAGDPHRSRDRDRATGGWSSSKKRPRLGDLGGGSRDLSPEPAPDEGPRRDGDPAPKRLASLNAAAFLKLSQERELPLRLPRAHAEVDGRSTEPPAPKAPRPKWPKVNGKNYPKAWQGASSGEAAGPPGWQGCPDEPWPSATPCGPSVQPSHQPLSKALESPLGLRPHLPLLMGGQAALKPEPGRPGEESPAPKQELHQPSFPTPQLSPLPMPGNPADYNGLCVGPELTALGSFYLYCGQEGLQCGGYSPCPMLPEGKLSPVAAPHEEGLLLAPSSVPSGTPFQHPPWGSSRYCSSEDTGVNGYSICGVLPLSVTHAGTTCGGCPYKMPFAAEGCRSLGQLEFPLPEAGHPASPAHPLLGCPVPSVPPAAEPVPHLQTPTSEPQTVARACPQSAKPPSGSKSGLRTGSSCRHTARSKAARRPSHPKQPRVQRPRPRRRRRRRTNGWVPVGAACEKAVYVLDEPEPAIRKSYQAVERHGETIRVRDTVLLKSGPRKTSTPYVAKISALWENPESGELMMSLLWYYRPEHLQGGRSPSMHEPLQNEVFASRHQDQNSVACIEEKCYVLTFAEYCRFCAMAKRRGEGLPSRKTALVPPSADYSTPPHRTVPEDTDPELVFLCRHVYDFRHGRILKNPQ
UniProt Q8TEB1, whole entry: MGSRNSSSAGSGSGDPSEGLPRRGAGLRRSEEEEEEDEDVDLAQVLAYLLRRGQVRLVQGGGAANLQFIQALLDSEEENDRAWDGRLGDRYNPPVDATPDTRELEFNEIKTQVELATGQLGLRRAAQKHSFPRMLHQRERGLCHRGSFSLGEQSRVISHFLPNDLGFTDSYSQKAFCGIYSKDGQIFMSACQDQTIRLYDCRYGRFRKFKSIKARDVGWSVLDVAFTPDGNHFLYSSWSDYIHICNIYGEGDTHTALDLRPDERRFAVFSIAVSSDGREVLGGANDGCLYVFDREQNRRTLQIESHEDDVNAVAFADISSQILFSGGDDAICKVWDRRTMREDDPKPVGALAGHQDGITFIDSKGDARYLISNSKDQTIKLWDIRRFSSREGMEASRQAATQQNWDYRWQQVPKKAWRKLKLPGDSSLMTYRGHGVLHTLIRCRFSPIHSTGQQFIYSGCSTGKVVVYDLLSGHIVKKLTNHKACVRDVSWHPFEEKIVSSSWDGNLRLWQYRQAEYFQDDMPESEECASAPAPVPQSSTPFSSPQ
UniProt Q8NG68: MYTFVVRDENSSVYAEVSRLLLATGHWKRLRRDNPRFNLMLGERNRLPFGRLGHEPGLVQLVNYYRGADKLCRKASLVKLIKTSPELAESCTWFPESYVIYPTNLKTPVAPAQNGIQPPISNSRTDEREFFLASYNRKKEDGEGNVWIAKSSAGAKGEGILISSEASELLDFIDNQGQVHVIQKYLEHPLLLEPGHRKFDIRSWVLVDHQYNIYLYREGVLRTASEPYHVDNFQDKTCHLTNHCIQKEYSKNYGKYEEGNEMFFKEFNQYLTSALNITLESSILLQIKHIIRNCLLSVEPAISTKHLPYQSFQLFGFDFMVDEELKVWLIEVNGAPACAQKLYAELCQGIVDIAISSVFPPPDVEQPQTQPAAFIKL
UniProt Q8NHH9: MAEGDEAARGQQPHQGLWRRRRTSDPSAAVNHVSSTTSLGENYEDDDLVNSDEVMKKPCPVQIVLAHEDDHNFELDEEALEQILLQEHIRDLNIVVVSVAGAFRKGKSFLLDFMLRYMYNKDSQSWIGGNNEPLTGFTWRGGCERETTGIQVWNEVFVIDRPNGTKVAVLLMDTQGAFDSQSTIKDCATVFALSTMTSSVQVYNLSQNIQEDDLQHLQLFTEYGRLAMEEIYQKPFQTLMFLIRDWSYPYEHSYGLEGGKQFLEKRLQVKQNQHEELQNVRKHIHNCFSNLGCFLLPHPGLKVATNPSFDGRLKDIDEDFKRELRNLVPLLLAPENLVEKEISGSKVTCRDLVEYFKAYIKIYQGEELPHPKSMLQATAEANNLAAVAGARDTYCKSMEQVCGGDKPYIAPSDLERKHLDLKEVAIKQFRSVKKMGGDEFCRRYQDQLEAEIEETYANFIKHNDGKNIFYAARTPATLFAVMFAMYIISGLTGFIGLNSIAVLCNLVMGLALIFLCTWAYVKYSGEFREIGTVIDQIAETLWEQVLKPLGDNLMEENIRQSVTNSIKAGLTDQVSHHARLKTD
UniProt Q8TEY7: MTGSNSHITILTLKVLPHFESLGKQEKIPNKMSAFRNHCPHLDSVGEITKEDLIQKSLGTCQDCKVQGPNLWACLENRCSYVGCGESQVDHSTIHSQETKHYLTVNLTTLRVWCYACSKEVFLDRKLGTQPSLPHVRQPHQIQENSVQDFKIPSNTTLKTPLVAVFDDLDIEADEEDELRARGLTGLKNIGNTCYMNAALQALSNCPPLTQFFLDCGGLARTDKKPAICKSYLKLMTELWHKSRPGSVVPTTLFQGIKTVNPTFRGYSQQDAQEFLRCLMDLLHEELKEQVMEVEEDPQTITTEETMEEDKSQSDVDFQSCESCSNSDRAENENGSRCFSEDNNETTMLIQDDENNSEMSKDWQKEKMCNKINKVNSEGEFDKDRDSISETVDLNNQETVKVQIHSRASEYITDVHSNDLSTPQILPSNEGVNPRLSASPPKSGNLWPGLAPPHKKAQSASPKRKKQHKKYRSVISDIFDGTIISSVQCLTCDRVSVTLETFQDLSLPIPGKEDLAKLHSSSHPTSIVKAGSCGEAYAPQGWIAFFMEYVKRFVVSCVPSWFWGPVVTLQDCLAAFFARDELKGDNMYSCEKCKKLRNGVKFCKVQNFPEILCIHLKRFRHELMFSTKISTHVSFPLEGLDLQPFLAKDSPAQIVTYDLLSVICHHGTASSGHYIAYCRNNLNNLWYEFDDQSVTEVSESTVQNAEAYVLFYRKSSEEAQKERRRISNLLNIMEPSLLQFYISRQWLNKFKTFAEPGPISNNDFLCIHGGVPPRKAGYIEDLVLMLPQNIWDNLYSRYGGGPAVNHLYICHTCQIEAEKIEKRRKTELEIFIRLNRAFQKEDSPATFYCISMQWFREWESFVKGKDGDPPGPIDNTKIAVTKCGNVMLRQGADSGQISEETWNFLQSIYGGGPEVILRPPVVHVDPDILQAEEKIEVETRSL

Compound: CCc1cnccc1C(=O)Nc1cc2c(cc1F)NC(=O)CC2
Experiment: melting temperature shift (DMSO Tm minus MBE1-treated Tm) in cellular thermal proteome profiling; higher = less thermal stabilization by MBE1 (negative = stabilized by MBE1)
Conditions: A375

Target	melting temperature shift (MBE1 concentration: 100 nM) [°C]	melting temperature shift (MBE1 concentration: 1 uM) [°C]
NT5C (UniProt Q8TCD5)	-1.12	-0.347
UniProt Q8TDI0	-0.224	-0.179
UBASH3B (UniProt Q8TF42)	-1.2	-0.715
BCL7C (UniProt Q8WUZ0)	0.295	0.583
PTPMT1 (UniProt Q8WUK0)	-0.055	1.38
DDHD1 (UniProt Q8NEL9)	0.228	0.00611
MCFD2 (UniProt Q8NI22)	-0.116	-0.195
MRPL43 (UniProt Q8N983)	0.0488	6.89
TRMT10A (UniProt Q8TBZ6)	-0.376	-0.349
SSH3 (UniProt Q8TE77)	0.765	-0.134
RASSF8 (UniProt Q8NHQ8)	-0.762	0.141
C3ORF58 (UniProt Q8NDZ4)	-0.41	0.519
UTP15 (UniProt Q8TED0)	-0.582	-0.32
WDR48 (UniProt Q8TAF3)	-1.3	-0.147
SNRNP27 (UniProt Q8WVK2)	-2.51	-1.72
UniProt Q8TBE0	1.93	2.01
DCAF11 (UniProt Q8TEB1)	-2.06	0.415
RNF214 (UniProt Q8ND24)	-0.263	-0.442
TTL (UniProt Q8NG68)	-0.684	-0.55
ATL2 (UniProt Q8NHH9)	-0.276	0.275
KRI1 (UniProt Q8N9T8)	-0.122	-0.359
TBCK (UniProt Q8TEA7)	-0.64	-1.45
USP33 (UniProt Q8TEY7)	-1.43	-0.739
KIAA1524 (UniProt Q8TCG1)	-0.589	-0.25

Quoted from the listing.
Under melting temperature shift (MBE1 concentration: 100 nM) [°C], MRPL43 (UniProt Q8N983) has the entry 0.0488
Under melting temperature shift (MBE1 concentration: 1 uM) [°C], BCL7C (UniProt Q8WUZ0) has the entry 0.583
